Assay results as given in patent CN112679607A.
These are yes or no findings as the source states them, for the method shown. Some entries that bind do so weakly or less than the wild type.

Substrate: 肌钙蛋白I (cTnI) 抗原 (UniProt P19429)
Assay: sandwich ELISA on pooled cTnI clinical sample (22.7 ng/ml, two-fold dilutions), HRP-F12 detection

B1: cTnI E13全长单抗 (E13 full-length monoclonal antibody) (antibody, V domains shown)
VH: EVQLQQSGPELVKPGASVKISCKASGYTFTDYNMHWLKQSHGKSLEWIGYIYPYSGGTAYNQKFKNKATLTADTSSSTAHMELRSLTSEDSSFYYCARHHDYDGGTFAYWGQGTLVTVSA
VL: DIQMTQTTSSLSASLGDRVTISCRASQDITNYLNWYQQKPDGTVKLLIYYTSRLHSGVPSRFSGSGSGPDYSLTISHLEHEDIATYFCQQGHTLPLTFGDGTTLEL
- binding: binds
